Our source for the NP40-soluble protein abundance values is the supplement of paper PMC6411743.

Amino acid sequences for entries named in this document (tags omitted). A change or cut given only in a name is not applied to a line headed by its entry.
UniProt Q9UK45: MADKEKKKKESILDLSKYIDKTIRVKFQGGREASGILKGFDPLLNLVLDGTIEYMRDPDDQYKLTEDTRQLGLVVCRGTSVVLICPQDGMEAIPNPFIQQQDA
UniProt Q9UPT9: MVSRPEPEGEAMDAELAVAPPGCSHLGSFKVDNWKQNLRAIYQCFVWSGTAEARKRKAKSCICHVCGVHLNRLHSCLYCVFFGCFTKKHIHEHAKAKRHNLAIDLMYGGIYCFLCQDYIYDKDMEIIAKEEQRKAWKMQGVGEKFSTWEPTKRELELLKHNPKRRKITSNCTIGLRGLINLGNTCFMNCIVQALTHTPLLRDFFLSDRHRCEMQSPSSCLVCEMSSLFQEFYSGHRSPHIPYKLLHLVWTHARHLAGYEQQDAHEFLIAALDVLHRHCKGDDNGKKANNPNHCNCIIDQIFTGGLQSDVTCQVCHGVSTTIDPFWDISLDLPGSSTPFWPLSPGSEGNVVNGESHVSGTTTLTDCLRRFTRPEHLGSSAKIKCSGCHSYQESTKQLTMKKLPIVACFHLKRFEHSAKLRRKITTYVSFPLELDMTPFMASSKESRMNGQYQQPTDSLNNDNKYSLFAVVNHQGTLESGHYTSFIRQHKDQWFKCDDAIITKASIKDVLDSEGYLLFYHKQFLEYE
UniProt Q9UFC0: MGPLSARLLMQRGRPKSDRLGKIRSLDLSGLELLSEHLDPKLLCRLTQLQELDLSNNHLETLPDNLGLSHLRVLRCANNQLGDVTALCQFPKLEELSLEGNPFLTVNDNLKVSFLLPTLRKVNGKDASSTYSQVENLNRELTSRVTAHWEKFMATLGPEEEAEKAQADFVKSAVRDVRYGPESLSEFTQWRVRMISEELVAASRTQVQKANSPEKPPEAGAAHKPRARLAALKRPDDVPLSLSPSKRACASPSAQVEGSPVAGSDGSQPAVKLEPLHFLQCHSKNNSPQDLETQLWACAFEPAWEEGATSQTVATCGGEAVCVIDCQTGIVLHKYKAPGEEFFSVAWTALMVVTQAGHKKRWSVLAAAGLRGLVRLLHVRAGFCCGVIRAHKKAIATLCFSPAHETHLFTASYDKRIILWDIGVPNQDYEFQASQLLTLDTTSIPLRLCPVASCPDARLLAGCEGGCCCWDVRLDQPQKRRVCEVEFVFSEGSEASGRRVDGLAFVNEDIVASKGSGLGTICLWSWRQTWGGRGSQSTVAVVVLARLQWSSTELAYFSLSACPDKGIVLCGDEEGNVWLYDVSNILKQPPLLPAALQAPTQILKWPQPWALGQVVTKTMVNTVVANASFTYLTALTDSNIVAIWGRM
UniProt Q9UBW8: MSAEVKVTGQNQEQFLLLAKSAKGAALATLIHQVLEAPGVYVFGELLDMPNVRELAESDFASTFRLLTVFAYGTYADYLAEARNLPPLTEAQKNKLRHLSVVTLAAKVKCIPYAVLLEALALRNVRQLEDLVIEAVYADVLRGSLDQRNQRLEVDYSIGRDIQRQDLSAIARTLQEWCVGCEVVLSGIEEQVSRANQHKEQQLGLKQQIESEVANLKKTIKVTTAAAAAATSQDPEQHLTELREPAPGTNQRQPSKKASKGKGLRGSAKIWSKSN
UniProt Q9UBK9, whole entry: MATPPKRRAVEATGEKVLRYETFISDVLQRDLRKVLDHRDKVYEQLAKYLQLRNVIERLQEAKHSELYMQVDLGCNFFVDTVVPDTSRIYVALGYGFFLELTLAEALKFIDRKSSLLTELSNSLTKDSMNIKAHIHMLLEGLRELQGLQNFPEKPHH
UniProt Q9UHD9, whole entry: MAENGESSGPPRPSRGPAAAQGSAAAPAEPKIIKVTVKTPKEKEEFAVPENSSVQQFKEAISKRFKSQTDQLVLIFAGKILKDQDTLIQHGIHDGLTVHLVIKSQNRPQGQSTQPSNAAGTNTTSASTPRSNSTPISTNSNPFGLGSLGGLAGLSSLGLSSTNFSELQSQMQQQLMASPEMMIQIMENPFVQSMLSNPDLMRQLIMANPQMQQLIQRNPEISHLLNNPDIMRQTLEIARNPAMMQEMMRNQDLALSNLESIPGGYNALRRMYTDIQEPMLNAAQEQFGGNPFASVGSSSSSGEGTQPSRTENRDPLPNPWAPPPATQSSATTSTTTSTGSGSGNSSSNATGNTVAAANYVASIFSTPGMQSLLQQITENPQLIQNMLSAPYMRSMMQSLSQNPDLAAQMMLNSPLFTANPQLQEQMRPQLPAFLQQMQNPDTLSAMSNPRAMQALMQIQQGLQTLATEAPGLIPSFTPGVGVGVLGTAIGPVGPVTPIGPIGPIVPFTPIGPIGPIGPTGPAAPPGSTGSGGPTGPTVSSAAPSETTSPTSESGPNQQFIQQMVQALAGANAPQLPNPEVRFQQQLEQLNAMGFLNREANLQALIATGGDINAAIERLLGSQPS
UniProt Q9UHL0: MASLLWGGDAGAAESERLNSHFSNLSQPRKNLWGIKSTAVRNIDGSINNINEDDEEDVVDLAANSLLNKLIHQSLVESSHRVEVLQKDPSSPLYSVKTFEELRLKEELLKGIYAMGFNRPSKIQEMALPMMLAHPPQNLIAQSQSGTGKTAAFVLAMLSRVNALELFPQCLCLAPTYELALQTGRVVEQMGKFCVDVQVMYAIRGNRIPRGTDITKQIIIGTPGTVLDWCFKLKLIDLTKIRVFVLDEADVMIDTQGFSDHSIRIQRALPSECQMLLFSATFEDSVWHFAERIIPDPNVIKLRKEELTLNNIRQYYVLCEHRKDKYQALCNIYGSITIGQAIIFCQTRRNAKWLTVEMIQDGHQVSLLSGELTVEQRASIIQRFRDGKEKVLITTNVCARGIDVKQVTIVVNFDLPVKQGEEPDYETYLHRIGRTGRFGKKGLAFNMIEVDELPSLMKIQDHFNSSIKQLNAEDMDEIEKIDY
UniProt Q9UEU0: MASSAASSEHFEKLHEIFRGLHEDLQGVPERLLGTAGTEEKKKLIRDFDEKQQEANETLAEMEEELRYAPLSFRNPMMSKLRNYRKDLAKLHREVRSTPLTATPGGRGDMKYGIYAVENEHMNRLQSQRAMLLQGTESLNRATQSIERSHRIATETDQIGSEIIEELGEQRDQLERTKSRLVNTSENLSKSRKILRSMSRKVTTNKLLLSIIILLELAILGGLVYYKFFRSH
UniProt Q9UBL0: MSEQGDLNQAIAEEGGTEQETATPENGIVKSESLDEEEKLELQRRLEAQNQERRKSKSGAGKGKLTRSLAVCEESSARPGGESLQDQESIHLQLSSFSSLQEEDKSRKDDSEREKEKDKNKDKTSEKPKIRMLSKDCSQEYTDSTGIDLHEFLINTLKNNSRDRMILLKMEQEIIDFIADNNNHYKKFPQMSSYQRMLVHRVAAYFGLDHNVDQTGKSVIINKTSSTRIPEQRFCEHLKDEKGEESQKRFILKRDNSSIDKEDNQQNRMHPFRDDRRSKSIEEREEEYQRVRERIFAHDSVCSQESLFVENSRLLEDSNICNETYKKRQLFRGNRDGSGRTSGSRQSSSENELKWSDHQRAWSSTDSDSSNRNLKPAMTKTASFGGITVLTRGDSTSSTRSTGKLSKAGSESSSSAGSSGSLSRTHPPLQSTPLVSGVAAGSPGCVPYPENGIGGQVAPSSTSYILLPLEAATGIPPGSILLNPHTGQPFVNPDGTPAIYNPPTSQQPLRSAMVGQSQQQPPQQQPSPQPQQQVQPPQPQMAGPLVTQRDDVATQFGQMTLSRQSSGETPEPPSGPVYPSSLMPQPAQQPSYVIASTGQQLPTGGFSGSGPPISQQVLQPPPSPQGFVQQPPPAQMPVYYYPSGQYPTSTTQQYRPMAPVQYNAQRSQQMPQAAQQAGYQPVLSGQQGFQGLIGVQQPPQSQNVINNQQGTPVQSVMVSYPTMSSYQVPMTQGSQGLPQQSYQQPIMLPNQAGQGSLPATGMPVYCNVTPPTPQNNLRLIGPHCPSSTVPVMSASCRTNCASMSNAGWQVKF
UniProt Q9UBP0: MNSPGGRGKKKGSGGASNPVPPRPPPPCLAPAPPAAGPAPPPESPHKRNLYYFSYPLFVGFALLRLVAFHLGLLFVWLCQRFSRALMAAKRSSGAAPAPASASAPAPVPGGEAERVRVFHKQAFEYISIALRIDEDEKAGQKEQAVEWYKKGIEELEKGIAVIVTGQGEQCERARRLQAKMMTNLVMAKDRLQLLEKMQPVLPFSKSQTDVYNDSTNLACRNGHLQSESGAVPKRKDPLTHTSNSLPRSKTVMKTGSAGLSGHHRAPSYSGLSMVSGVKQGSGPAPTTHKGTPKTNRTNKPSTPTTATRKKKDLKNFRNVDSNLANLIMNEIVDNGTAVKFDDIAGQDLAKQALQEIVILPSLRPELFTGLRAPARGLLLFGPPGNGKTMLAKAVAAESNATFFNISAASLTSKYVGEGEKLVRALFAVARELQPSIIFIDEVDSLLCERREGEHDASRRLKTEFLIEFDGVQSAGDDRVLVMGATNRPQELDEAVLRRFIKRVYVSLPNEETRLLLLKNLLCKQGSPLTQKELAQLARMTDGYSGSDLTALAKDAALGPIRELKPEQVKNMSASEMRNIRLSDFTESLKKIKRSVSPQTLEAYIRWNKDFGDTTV
UniProt Q9UBM7: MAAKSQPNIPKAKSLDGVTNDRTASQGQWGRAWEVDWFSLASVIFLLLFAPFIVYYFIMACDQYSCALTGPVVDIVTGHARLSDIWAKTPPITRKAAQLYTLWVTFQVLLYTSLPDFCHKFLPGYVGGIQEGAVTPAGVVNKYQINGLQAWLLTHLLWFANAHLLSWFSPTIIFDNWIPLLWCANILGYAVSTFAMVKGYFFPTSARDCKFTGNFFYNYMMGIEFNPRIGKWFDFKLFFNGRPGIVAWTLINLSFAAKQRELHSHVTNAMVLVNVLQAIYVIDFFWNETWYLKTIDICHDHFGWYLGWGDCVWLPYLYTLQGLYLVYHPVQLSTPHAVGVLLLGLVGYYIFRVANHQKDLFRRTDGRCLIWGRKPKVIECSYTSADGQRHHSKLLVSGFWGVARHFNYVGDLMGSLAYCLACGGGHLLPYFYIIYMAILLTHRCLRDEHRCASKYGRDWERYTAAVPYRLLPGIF
UniProt Q9UJV9: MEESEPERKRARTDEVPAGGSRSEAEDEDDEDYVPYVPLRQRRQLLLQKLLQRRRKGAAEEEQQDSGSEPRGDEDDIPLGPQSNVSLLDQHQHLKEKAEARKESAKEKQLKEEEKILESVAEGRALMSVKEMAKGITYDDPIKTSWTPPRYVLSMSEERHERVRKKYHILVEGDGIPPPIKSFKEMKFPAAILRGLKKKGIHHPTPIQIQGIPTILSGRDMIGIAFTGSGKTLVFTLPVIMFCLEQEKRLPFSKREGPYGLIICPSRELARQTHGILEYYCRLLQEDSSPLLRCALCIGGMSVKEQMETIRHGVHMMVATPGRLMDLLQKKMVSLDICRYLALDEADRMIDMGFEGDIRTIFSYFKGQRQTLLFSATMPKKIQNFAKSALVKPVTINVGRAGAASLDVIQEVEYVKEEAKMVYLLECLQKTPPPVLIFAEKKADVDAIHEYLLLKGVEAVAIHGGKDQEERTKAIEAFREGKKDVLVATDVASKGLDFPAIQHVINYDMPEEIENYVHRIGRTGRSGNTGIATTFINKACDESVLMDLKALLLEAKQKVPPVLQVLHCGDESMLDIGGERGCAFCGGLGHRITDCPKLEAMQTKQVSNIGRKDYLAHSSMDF
UniProt Q9UPW0: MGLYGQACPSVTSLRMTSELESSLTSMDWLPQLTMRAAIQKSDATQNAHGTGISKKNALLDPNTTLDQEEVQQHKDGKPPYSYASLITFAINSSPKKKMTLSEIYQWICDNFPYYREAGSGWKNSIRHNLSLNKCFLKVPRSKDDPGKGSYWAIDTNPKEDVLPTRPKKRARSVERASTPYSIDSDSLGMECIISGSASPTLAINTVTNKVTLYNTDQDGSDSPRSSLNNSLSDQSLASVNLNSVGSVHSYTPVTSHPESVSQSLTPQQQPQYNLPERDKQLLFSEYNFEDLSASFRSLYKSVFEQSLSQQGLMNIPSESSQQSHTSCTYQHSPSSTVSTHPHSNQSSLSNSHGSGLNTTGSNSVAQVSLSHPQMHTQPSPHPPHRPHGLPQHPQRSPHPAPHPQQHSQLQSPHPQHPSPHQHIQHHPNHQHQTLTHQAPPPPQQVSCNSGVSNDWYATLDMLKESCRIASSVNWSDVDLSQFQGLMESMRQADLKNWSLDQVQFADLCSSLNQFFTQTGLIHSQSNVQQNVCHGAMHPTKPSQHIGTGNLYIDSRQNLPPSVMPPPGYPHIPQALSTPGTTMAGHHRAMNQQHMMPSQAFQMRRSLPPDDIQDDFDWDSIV
UniProt Q9UJ70, whole entry: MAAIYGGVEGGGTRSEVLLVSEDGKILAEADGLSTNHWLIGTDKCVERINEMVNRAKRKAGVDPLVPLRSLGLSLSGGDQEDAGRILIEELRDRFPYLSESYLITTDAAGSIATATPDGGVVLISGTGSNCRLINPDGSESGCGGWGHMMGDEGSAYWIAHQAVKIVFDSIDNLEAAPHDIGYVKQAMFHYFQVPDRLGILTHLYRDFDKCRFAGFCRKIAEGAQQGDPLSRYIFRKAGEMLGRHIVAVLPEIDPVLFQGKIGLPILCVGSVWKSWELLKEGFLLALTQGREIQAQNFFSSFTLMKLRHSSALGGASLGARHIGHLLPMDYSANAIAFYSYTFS

± gives the standard deviation of the averaged measurements. The entries are a selection whose mix differs from that of the whole data set. Most values lie at the level of the controls, where differences are scatter.

Compound in this experiment: Nc1ncnc2c1ncn2[C@@H]1O[C@H](COP(=O)(O)OP(=O)(O)OP(=O)(O)O)[C@@H](O)[C@H]1O [adenosine triphosphate]
The experiment in a line: NP40-soluble protein abundance relative to vehicle (solubility fold change) (ratio); higher = more soluble protein in presence of ATP. As to conditions: concentration: 0.5mM. The essentials: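 Each value is a fold change relative to the detergent-processed vehicle, calculated per replicate from vsn-normalised intensities. Jurkat crude lysate received eight concentrations (0.1 to 10 mM) for 10 min at room temperature and 3 min at 37 °C, then was solubilised in 0.8% NP40 with benzonase (60 min, 4 °C). The ultracentrifuged supernatant was TMT-labelled and run by LC-MS/MS in three independent experiments.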
For the target UniProt Q9UKV8, the NP40-soluble protein abundance turned out to be 1.04 ± 0.031.

On to ASF1A (UniProt Q9Y294), for which the NP40-soluble protein abundance amounted to 1.07 ± 0.082.

LSM7 (UniProt Q9UK45): the NP40-soluble protein abundance was 0.904 ± 0.056.

SRP68 (UniProt Q9UHB9): the NP40-soluble protein abundance turned out to be 1 ± 0.04.

With GPATCH8 (UniProt Q9UKJ3), the NP40-soluble protein abundance worked out at 1.35 ± 0.15.

For the target UniProt Q9UHP3 and related entries, the NP40-soluble protein abundance stood at 0.913 ± 0.089.

For the target UniProt Q9UBH6 and related entries, the NP40-soluble protein abundance worked out at 1.06 ± 0.081.

UniProt Q9UPT9 and related entries: the NP40-soluble protein abundance turned out to be 1.04 ± 0.03.

Take LRWD1 (UniProt Q9UFC0): the NP40-soluble protein abundance came to 1.05 ± 0.047.

For UniProt Q9UP83 and related entries, the NP40-soluble protein abundance was 0.972 ± 0.054.

Consider ANAPC7 (UniProt Q9UJX3), for which the NP40-soluble protein abundance turned out to be 1.02 ± 0.021.

As for UniProt Q9UL40 and related entries, the NP40-soluble protein abundance turned out to be 0.972 ± 0.076.

On to AKAP11 (UniProt Q9UKA4), for which the NP40-soluble protein abundance came to 0.99 ± 0.035.

AP4E1 (UniProt Q9UPM8): the NP40-soluble protein abundance was found to be 1.07 ± 0.041.

For POLK (UniProt Q9UBT6), the NP40-soluble protein abundance was 0.975 ± 0.046.

For the target DCTN4 (UniProt Q9UJW0), the NP40-soluble protein abundance amounted to 1.03 ± 0.053.

With COPS7A (UniProt Q9UBW8), the NP40-soluble protein abundance turned out to be 0.9963 ± 0.005.

As for UniProt Q9UIS9 and related entries, the NP40-soluble protein abundance is 1.05 ± 0.055.

Turning to ZMIZ1 (UniProt Q9ULJ6), the NP40-soluble protein abundance is 1.07 ± 0.19.

Take CGN (UniProt Q9P2M7): the NP40-soluble protein abundance turned out to be 1.11 ± 0.048.

Regarding UXT (UniProt Q9UBK9), the NP40-soluble protein abundance was determined as 0.9605 ± 0.0025.

Regarding UBQLN2 (UniProt Q9UHD9), the NP40-soluble protein abundance is 0.845 ± 0.12.

For UniProt Q9UHL0 and related entries, the NP40-soluble protein abundance turned out to be 0.951 ± 0.18.

Regarding VTI1B (UniProt Q9UEU0), the NP40-soluble protein abundance came out at 0.9834 ± 0.0074.

As for ARPP21 (UniProt Q9UBL0), the NP40-soluble protein abundance was found to be 0.957 ± 0.061.

Turning to UniProt Q9UBP0 and related entries, the NP40-soluble protein abundance amounted to 1.01 ± 0.024.

As to DHCR7 (UniProt Q9UBM7), the NP40-soluble protein abundance came to 0.977 ± 0.029.

With SCML2 (UniProt Q9UQR0), the NP40-soluble protein abundance came out at 1.11 ± 0.029.

With UniProt Q9UNA1 and related entries, the NP40-soluble protein abundance stood at 1.03 ± 0.072.

AMFR (UniProt Q9UKV5): the NP40-soluble protein abundance amounted to 1 ± 0.043.

Regarding UniProt Q9UJV9 and related entries, the NP40-soluble protein abundance was 1.36 ± 0.036.

Consider UniProt Q9ULC4 and related entries, for which the NP40-soluble protein abundance amounted to 1.04 ± 0.043.

With UniProt Q9UPW0 and related entries, the NP40-soluble protein abundance turned out to be 0.964 ± 0.044.

With UniProt Q9UI12 and related entries, the NP40-soluble protein abundance came out at 1.04 ± 0.059.

Regarding NAGK (UniProt Q9UJ70), the NP40-soluble protein abundance came to 0.989 ± 0.071.

Turning to ATXN10 (UniProt Q9UBB4), the NP40-soluble protein abundance worked out at 0.956 ± 0.0092.

On to “Q9UBK7-2|Q9UNT1-2 (UniProt Q9UNT1+Q9UBK7)”, for which the NP40-soluble protein abundance stood at 0.984 ± 0.043.

As to “UniProt Q9UBB6-2|Q9UBB6 and related entries”, the NP40-soluble protein abundance came out at 0.888 ± 0.045.
